Assay results as given in the supplement of paper PMC11732987, “Enantioselective OTUD7B fragment discovery through chemoproteomics screening and high-throughput optimisation” (Communications Chemistry, 2025).
Some of the results follow. The data scatter; read single values as rough.

Compound: ClCC(=O)N[C@@H]1CCCc2ccccc12
Test: log2 mean competition ratio of IA-DTB cysteine labelling (DMSO/compound) (log2 ratio); higher = stronger cysteine engagement by compound
Conditions: 50 µM; treatment time: 4 h; cell line lysate: HEK293T
Experimental: (§1)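 IA-DTB competitive cysteine chemoproteomics in HEK293T RIPA lysate. Lysates were treated with compound 29 or 30 at 50 or 200 µM for 4 h, then IA-DTB (500 µM, 1 h), trypsin-digested, NeutrAvidin-enriched and analysed by diaPASEF. Competition ratio = intensity DMSO / intensity compound (n=4 treated, n=64 DMSO); binding: mean log2 CR ≥ 1 and p ≤ 0.05 plus QC filters. Target is the cysteine site.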

Target	log2 mean competition ratio
CPSF6 C476 (UniProt Q16630)	-0.212
CORO2A C335 (UniProt Q92828)	-0.0657
CNN3 C173 (UniProt Q15417)	0.665
CLASP2 C528 (UniProt O75122)	0.197
CHD9 C881 (UniProt Q3L8U1)	-0.0202
CKAP5 C1203 (UniProt Q14008)	0.154
CKAP5 C1113 (UniProt Q14008)	-0.0994
CNNM3 C376 (UniProt Q8NE01)	-0.344
CHD9 C1705 (UniProt Q3L8U1)	0.0085
COG1 C584 (UniProt Q8WTW3)	-0.234
COQ5 C170 (UniProt Q5HYK3)	0.0039
CLCN3 C783 (UniProt P51790)	0.222
CKAP5 C619 (UniProt Q14008)	0.27
CISD2 C92 (UniProt Q8N5K1)	0.0452
CPS1 C225 (UniProt P31327)	-0.0492
COPG2 C44 (UniProt Q9UBF2)	0.55
CHEK1 C408 (UniProt O14757)	0.203
CLIC1 C24 (UniProt O00299)	-0.0675
CKAP4 C100 (UniProt Q07065)	-0.184

Target	log2 mean competition ratio
CPNE7 C20 (UniProt Q9UBL6)	0.114
COMMD4 C107 (UniProt Q9H0A8)	0.259
CLTC C491 (UniProt Q00610)	-0.244
CHTF18 C542 (UniProt Q8WVB6)	-0.0573
COPB1 C390 (UniProt P53618)	0.097
CORO1C C456 (UniProt Q9ULV4)	-0.0907
CMTR1 C593 (UniProt Q8N1G2)	-0.0471
CLTCL1 C491 (UniProt P53675)	0.106
CPE C300	0.331
CORO7 C695 (UniProt P57737)	-0.295
CMC2 C37 (UniProt Q9NRP2)	-0.0187
CLCC1 C279 (UniProt Q96S66)	0.0122
CPSF1 C1102 (UniProt Q10570)	-0.0715
CLCC1 C254 (UniProt Q96S66)	-0.062
COMMD9 C160 (UniProt Q9P000)	-0.168
COQ7 C137 (UniProt Q99807)	0.0604
CHPF2 C42 (UniProt Q9P2E5)	-0.191
CPT1A C742 (UniProt P50416)	0.0459
CMTR1 C9 (UniProt Q8N1G2)	-0.144

Same assay, conditions: 200 µM; treatment time: 4 h; cell line lysate: HEK293T

Target	log2 mean competition ratio
CPSF6 C476 (UniProt Q16630)	0.326
CORO2A C335 (UniProt Q92828)	-0.17
CNN3 C173 (UniProt Q15417)	-0.0317
CLASP2 C528 (UniProt O75122)	0.121
CHD9 C881 (UniProt Q3L8U1)	0.292
CKAP5 C1203 (UniProt Q14008)	-0.0833
CKAP5 C1113 (UniProt Q14008)	0.017
CNNM3 C376 (UniProt Q8NE01)	-0.191
CHD9 C1705 (UniProt Q3L8U1)	-0.0653
COG1 C584 (UniProt Q8WTW3)	-0.286
COQ5 C170 (UniProt Q5HYK3)	-0.0714
CLCN3 C783 (UniProt P51790)	0.173
CKAP5 C619 (UniProt Q14008)	0.267
CISD2 C92 (UniProt Q8N5K1)	-0.214
CPS1 C225 (UniProt P31327)	-0.227
COPG2 C44 (UniProt Q9UBF2)	-0.35
CHEK1 C408 (UniProt O14757)	0.11
CLIC1 C24 (UniProt O00299)	0.183
CKAP4 C100 (UniProt Q07065)	0.435

Target	log2 mean competition ratio
CPNE7 C20 (UniProt Q9UBL6)	-0.106
COMMD4 C107 (UniProt Q9H0A8)	-0.17
CLTC C491 (UniProt Q00610)	-0.453
CHTF18 C542 (UniProt Q8WVB6)	-0.075
COPB1 C390 (UniProt P53618)	-0.295
CORO1C C456 (UniProt Q9ULV4)	-0.0545
CMTR1 C593 (UniProt Q8N1G2)	-0.176
CLTCL1 C491 (UniProt P53675)	-0.156
CPE C300	0.429
CORO7 C695 (UniProt P57737)	-0.311
CMC2 C37 (UniProt Q9NRP2)	-0.077
CLCC1 C279 (UniProt Q96S66)	-0.108
CPSF1 C1102 (UniProt Q10570)	0.114
CLCC1 C254 (UniProt Q96S66)	0.169
COMMD9 C160 (UniProt Q9P000)	-0.267
COQ7 C137 (UniProt Q99807)	-0.15
CHPF2 C42 (UniProt Q9P2E5)	0.336
CPT1A C742 (UniProt P50416)	-0.141
CMTR1 C9 (UniProt Q8N1G2)	-0.207

Compound: ClCC(=O)N[C@H]1CCCc2ccccc12
Test: as above
Conditions: 50 µM; treatment time: 4 h; cell line lysate: HEK293T
Experimental: as §1

Target	log2 mean competition ratio
CPSF6 C476 (UniProt Q16630)	-0.754
CORO2A C335 (UniProt Q92828)	-0.423
CNN3 C173 (UniProt Q15417)	0.51
CLASP2 C528 (UniProt O75122)	0.0854
CHD9 C881 (UniProt Q3L8U1)	0.0429
CKAP5 C1203 (UniProt Q14008)	0.522
CKAP5 C1113 (UniProt Q14008)	-0.353
CNNM3 C376 (UniProt Q8NE01)	-0.196
CHD9 C1705 (UniProt Q3L8U1)	-0.29
COG1 C584 (UniProt Q8WTW3)	0.272
COQ5 C170 (UniProt Q5HYK3)	0.0375
CLCN3 C783 (UniProt P51790)	-0.116
CKAP5 C619 (UniProt Q14008)	-0.101
CISD2 C92 (UniProt Q8N5K1)	-0.195
CPS1 C225 (UniProt P31327)	0.112
COPG2 C44 (UniProt Q9UBF2)	0.624
CHEK1 C408 (UniProt O14757)	-0.49
CLIC1 C24 (UniProt O00299)	-0.458
CKAP4 C100 (UniProt Q07065)	-0.499

Target	log2 mean competition ratio
CPNE7 C20 (UniProt Q9UBL6)	0.0155
COMMD4 C107 (UniProt Q9H0A8)	0.343
CLTC C491 (UniProt Q00610)	-0.0631
CHTF18 C542 (UniProt Q8WVB6)	-0.402
COPB1 C390 (UniProt P53618)	0.123
CORO1C C456 (UniProt Q9ULV4)	-0.229
CMTR1 C593 (UniProt Q8N1G2)	-0.215
CLTCL1 C491 (UniProt P53675)	0.165
CPE C300	0.453
CORO7 C695 (UniProt P57737)	-0.491
CMC2 C37 (UniProt Q9NRP2)	-0.169
CLCC1 C279 (UniProt Q96S66)	0.0155
CPSF1 C1102 (UniProt Q10570)	-0.23
CLCC1 C254 (UniProt Q96S66)	0.0607
COMMD9 C160 (UniProt Q9P000)	-0.113
COQ7 C137 (UniProt Q99807)	-0.221
CHPF2 C42 (UniProt Q9P2E5)	-0.0503
CPT1A C742 (UniProt P50416)	-0.159
CMTR1 C9 (UniProt Q8N1G2)	-0.0477
